{"source": "patent US20060105967A1", "about": "“Flavone derivatives as TNFalpha inhibitors or antagonists” (Advanced Gene Technology, Corp., priority 2004, published 2006)", "tested_on": "rats with collagen-induced arthritis", "assay": "Anti-inflammatory effect on rats with collagen-induced arthritis", "type": "in vivo, rat", "settings": "CIA rats treated (IP), hind limbs removed six days after final dosing", "text": "SD rats of SPF grade were supplied from BioLasco. Prior to performing the study, the animals were accommodated for 4 days after being received. Weighing, blood sampling, measuring the paw volumes and other related records for each animal were established. The rats were immunized and boosted with bovine collagen II-EFA (Incomplete Freund's Adjuvant, from Sigma) to induce arthritis (CIA). The CIA rats were grouped into 6 groups and daily injected with the drug candidates (myricitrin and quercetin-3-D-glucoside respectively). Dexamethasone (0.2 mg) was used as a positive control and 5% ethanol as a negative control. Treatment period was 7 days. Body weight and paw volumes were measured and blood sampling were collected at day 0, 3, 6, 10 and 14.\nSix days after the final dosing, all the animals were sacrificed. The affected hind limbs were removed for histological assessment. The parameters of body weights and paw volumes were measured and compared for before, during and after treatment with drug candidates.", "note": "Entries after “also recorded” stand apart in the source; their conditions may differ. At least one compound was matched to its structure with a doubt left."}
{"smiles": "C[C@@H]1C[C@H]2[C@@H]3CCC4=CC(=O)C=C[C@]4(C)[C@@]3(F)[C@@H](O)C[C@]2(C)[C@@]1(O)C(=O)CO", "note": "[dexamethasone, reference compound]", "values": [{"measurement": "histopathological changes of joint", "value": "Proliferation of synovial ling cell and infiltration of erythrocytes and some lymphocytes could be observed; also recorded: Periarticular edema and infiltration of lymphocytes were observed"}]}
